{"sequences": {"note": "Protein sequences, listed by entry. Tags and fused reporters are not part of them. Lines headed by an entry give the natural chain unless they say otherwise; changes in a name come on top.", "UniProt Q01638": "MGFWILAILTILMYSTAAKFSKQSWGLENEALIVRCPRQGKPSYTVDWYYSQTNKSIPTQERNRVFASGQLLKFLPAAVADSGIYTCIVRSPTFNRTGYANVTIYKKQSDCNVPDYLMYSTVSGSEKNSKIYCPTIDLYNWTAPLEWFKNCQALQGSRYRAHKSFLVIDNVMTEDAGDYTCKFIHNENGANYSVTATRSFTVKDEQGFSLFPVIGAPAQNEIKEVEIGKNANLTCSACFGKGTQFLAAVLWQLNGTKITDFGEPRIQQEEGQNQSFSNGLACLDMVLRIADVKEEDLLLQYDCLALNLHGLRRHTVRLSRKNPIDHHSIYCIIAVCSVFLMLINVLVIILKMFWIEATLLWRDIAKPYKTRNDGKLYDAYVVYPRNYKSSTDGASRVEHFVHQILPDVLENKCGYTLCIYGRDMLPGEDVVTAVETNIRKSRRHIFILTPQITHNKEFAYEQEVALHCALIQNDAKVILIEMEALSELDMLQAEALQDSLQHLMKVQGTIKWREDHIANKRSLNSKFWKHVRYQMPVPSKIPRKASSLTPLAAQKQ"}, "source": "PubChem BioAssay AID1259354", "about": "(Paczesny and Yang Labs, IUPUI and University of Michigan, 2018)", "note": "In all, about 78,000 compounds went through this assay and about 1,800 (2.3%) were called active. The inconclusive results got no clear call from the source; some entries with a clear call stand among them for comparison. No stated cut-off is given here; in the data, active means inhibition above about 30%; inconclusive means mostly about 10% to 28%; inactive means weaker than that.", "data": [{"biological_target": "Interleukin-1 receptor-like 1 (Homo sapiens) (UniProt Q01638)", "test": "blocks human ST2 binding to IL-33, primary screen, biochemical, AlphaLISA (AID 1259354)", "conditions": "AlphaLISA ST2-Fc/biotin-IL-33 interaction, 1 h; at 17 µM, stronger effect = higher value", "values": [{"smiles": "Cc1cccn2c(=O)c3cc(C(=O)NCc4ccc(F)cc4)n(C)c3nc12", "inhibition": "inactive"}, {"smiles": "O=[N+]([O-])c1ccc(C2Nc3c(cccc3C(F)(F)F)C3C=CCC32)cc1", "note": "(centres undefined)", "inhibition": "inactive"}, {"smiles": "CCc1ccc(S(=O)(=O)N2CCN(c3nc(C)cc(N4CCCCC4)n3)CC2)cc1", "inhibition": "inconclusive: 23%"}, {"smiles": "O=C(OCCN1C(=O)c2ccccc2C1=O)c1ccccc1Cl", "inhibition": "inactive"}, {"smiles": "CN1CCCC2(CC1)CCN(C(=O)c1cc(-c3cccn3C)n[nH]1)CC2", "inhibition": "inconclusive: 29%"}, {"smiles": "COc1ccc(C(C#N)N2N=C(c3ccccc3)CC2c2ccccc2)cc1OC", "note": "(centres undefined)", "inhibition": "inconclusive: 25%"}, {"smiles": "O=C(CCC1=NS(=O)(=O)c2ccccc2N1)N1CCN(Cc2ccc3c(c2)OCO3)CC1", "inhibition": "inconclusive: 13%"}, {"smiles": "O[C@@H]1CN(Cc2ccccc2Cn2cccn2)CC[C@H]1c1ccc(F)cc1", "inhibition": "inconclusive: 14%"}, {"smiles": "COc1ccccc1NCc1nc2ccccc2n1Cc1ccccc1F", "inhibition": "inconclusive: 28%"}, {"smiles": "CC(C)Nc1nc(NC(C)C)nc(Oc2ccc(/C=N\\O)cc2)n1", "inhibition": "inconclusive: 19%"}, {"smiles": "N#CC1=C(N)Oc2c(sc3ccccc23)C1c1ccco1", "note": "(centres undefined)", "inhibition": "inconclusive: 26%"}, {"smiles": "C=CCN1C(=O)NC(=O)/C(=C/c2ccc(OCc3ccccc3F)c(OCC)c2)C1=O", "inhibition": "inconclusive: 12%"}, {"smiles": "O=C(N[C@H]1CCN2C(=O)N(c3ccc(OC(F)(F)F)cc3)C(=O)[C@@H]2C1)c1ccncc1", "inhibition": "inactive"}, {"smiles": "CCOc1ccccc1-n1c(CN2CCN(C)CC2)n[nH]c1=O", "inhibition": "inactive"}, {"smiles": "COc1ccccc1CN1CC(C(=O)NCc2ccc3[nH]c(C)cc3c2)CCC1=O", "note": "(centres undefined)", "inhibition": "inconclusive: 15%"}, {"smiles": "NC(=O)CSc1nc2ccc(Cl)cc2o1", "inhibition": "inactive"}, {"smiles": "CC(C)NC(=O)NC[C@H]1O[C@@H](CC(=O)NC2CC2)[C@H](O)[C@@H]1O", "inhibition": "inconclusive: 11%"}, {"smiles": "Cc1ccc(-n2ncc3c2CC(C)(C)CC3NC2CCOCC2)cc1", "note": "(centres undefined)", "inhibition": "inconclusive: 14%"}, {"smiles": "O=C(O)c1cc(N=Cc2ccc(Br)c([N+](=O)[O-])c2)ccc1O", "inhibition": "inconclusive: 10%"}, {"smiles": "O=C(O)c1ccncc1C(=O)O", "inhibition": "inactive"}, {"smiles": "COc1cc(CNc2ccc3c(c2)ncn3C)cc(OC)c1OC", "inhibition": "inconclusive: 16%"}, {"smiles": "CCOC(=O)N1CCN(C(=O)c2ccc(C)cc2Cl)CC1", "inhibition": "inconclusive: 12%"}, {"smiles": "COc1ccc2c(c1)OC(C)CN(CCNC(=O)c1cc3cc(F)ccc3[nH]1)C2", "note": "(centres undefined)", "inhibition": "inconclusive: 16%"}, {"smiles": "O=C(c1cncc(N2CC(c3cccnc3)C2)n1)N1CCOCC1", "inhibition": "inconclusive: 11%"}, {"smiles": "Cc1ccc(S(=O)(=O)NC(=NC(C)C)c2ccc(F)cc2)cc1", "inhibition": "inconclusive: 14%"}, {"smiles": "COc1ccc2c(c1)CCC1C2=NN(C(C)=O)C1c1cccc([N+](=O)[O-])c1", "note": "(centres undefined)", "inhibition": "inconclusive: 12%"}, {"smiles": "O=C(O)CCCNS(=O)(=O)c1ccc2c(c1)OCCO2", "inhibition": "inactive"}, {"smiles": "Cc1ncc(-c2ccc(F)cc2)c(C2CCCN(C(=O)Cc3ccc(N4CCNC4=O)cc3)C2)n1", "note": "(centres undefined)", "inhibition": "inactive"}, {"smiles": "COc1ccc(Cc2nnc(Nc3ccc4c(c3)OCO4)[nH]c2=O)cc1", "inhibition": "inactive"}, {"smiles": "COc1cccc(CNC2CCc3c(sc4ncn(Cc5cccc(F)c5)c(=O)c34)C2)c1OC", "note": "(centres undefined)", "inhibition": "inconclusive: 19%"}, {"smiles": "Cc1ccc2c(C)c(C(=O)N3CCCC(Nc4ccc5c(c4)OCCO5)C3)oc2c1", "note": "(centres undefined)", "inhibition": "inconclusive: 29%"}, {"smiles": "CCOC(=O)c1nn(CCc2ccc(OC)cc2)c2c1CN(Cc1cccc3nccnc13)CC2", "inhibition": "inconclusive: 25%"}, {"smiles": "CCn1ccnc1CN(C)C(C)C(=O)N(C)C", "note": "(centres undefined)", "inhibition": "inactive"}, {"smiles": "Cc1cc([N+](=O)[O-])nn1CCCC(=O)Nc1cccc(O)c1", "inhibition": "inconclusive: 12%"}, {"smiles": "CCC(C)NC(=O)CSc1c2c(nc3ccccc13)CCC2", "note": "(centres undefined)", "inhibition": "inconclusive: 15%"}, {"smiles": "O=[N+]([O-])c1cccc(S(=O)(=O)NCc2nc3cccnc3n2Cc2ccccc2)c1", "inhibition": "inconclusive: 19%"}, {"smiles": "CCc1nccn1CCC(=O)N1CCC(Cc2nncn2-c2ccccc2)CC1", "inhibition": "inconclusive: 13%"}, {"smiles": "Cc1cc(C)c(CN2CCCC(N3CCCC3=O)C2)c(-n2cccn2)c1", "note": "(centres undefined)", "inhibition": "inconclusive: 20%"}, {"smiles": "CCOc1ccc(NC(=O)CC2CCCCC2)cc1", "inhibition": "inactive"}, {"smiles": "CC1(C)Oc2ccccc2C2CC(c3cccs3)=NN21", "note": "(centres undefined)", "inhibition": "inconclusive: 28%"}, {"smiles": "Cc1ccsc1[C@@H]1CCN(C(=O)c2ccc(-n3cnnc3)cc2)C[C@H]1O", "inhibition": "inactive"}, {"smiles": "COc1ccc(NC(=O)CCC2CCCN(Cc3ccncc3)C2)cc1Cl", "note": "(centres undefined)", "inhibition": "inconclusive: 17%"}, {"smiles": "Cc1cccn2c(=O)c3cc(C(=O)Nc4ccccc4F)sc3nc12", "inhibition": "active: 35%"}, {"smiles": "Cc1ccc(Sc2c(C)nn(C(C)(C)C)c2OC(=O)c2ccco2)cc1", "inhibition": "inactive"}, {"smiles": "CCOc1ccc(NC(=O)CN2CCN(Cc3ccccc3)S2(=O)=O)cc1", "inhibition": "inconclusive: 10%"}, {"smiles": "CCOC(=O)Cn1c(=O)n(-c2ccc(C)c(C)c2)c2nc(-c3ccc(OC)cc3)nc(C(N)=O)c21", "inhibition": "inactive"}, {"smiles": "NC(=O)C1(N2CCCCC2)CCN(C2CC(=O)N(c3ccccc3F)C2=O)CC1", "note": "(centres undefined)", "inhibition": "inconclusive: 12%"}, {"smiles": "CN1C(=O)C(CC(=O)NCc2cnn3ccccc23)N(C)C1=O", "note": "(centres undefined)", "inhibition": "inactive"}, {"smiles": "CCOc1ccc(N(C(C)C(=O)Nc2ccc(C)c(Cl)c2)S(C)(=O)=O)cc1", "note": "(centres undefined)", "inhibition": "inactive"}, {"smiles": "CCN1CCN(Cc2ccc(-c3ccccc3)cc2)CC1", "inhibition": "inactive"}, {"smiles": "Cc1ccc(NC(=O)c2ccc(NS(=O)(=O)c3c(C)n[nH]c3C)cc2)cc1", "inhibition": "inactive"}, {"smiles": "CC(O)c1cccc(-c2cc(NC3CCNCC3)nc3[nH]ccc23)n1", "note": "(centres undefined)", "inhibition": "active: 46%"}, {"smiles": "COc1ccc(/C=C/CN2CCN(c3nccc4ccccc34)CC2)cc1", "inhibition": "inconclusive: 26%"}, {"smiles": "CN(CCCn1cccn1)C(=O)c1cc(Cn2ccc3ccccc32)[nH]n1", "inhibition": "inconclusive: 19%"}, {"smiles": "COc1cc2c(C(=O)N3CCN(C)CC3)cn(C)c(=O)c2cc1OC", "inhibition": "inconclusive: 14%"}, {"smiles": "Cc1ccc(N2NC(=O)/C(=C/c3ccco3)C2=O)cc1Cl", "inhibition": "inconclusive: 27%"}, {"smiles": "Cc1nn(C)cc1-c1ccnc(NCC2CCN(Cc3ccccc3)C2)n1", "note": "(centres undefined)", "inhibition": "inconclusive: 10%"}, {"smiles": "Cc1ccc(C(=O)NCCc2nc3ccccc3[nH]2)cc1", "inhibition": "inconclusive: 10%"}, {"smiles": "NCC1Cc2cc(-c3ccccc3OCCn3ccnc3)cc(Cl)c2O1", "note": "(centres undefined)", "inhibition": "inconclusive: 25%"}, {"smiles": "O=[N+]([O-])c1c(Cl)ncnc1NCc1ccccc1", "inhibition": "inactive"}, {"smiles": "COC(=O)c1sccc1NC(=O)c1cc(-c2ccc(Cl)cc2)nc2ccccc12", "inhibition": "inactive"}, {"smiles": "CC(=O)Nc1ccc(S(=O)(=O)N[C@H]2C[C@@H](c3nc(-c4ccc(F)cc4)no3)N(C)C2)cc1", "inhibition": "inconclusive: 20%"}, {"smiles": "OCc1ccc(-c2cc(Cl)cc(Cl)c2)o1", "inhibition": "inconclusive: 13%"}, {"smiles": "O=S(=O)(Cc1ccccc1)NCc1nc2cccnc2n1Cc1ccc(Cl)cc1", "inhibition": "inactive"}, {"smiles": "O=C(O)c1cccc(NC(=O)c2ccc([N+](=O)[O-])cc2)c1", "inhibition": "inactive"}, {"smiles": "Oc1oc(-c2ccc(Br)cc2)nc1C=Nc1ccccc1", "inhibition": "inconclusive: 15%"}, {"smiles": "Cc1ccc(N2CN=c3s/c(=C\\c4ccccn4)c(=O)n3C2)cc1", "inhibition": "inconclusive: 22%"}, {"smiles": "CC(C)(C)NC(=O)CSc1nc2ccc(N3C(=O)c4ccccc4C3=O)cc2s1", "inhibition": "inactive"}, {"smiles": "Cc1cc(C)n(-c2ccc(C(=O)N3CCc4c(c(C(=O)O)nn4C)C3)cc2)n1", "inhibition": "inconclusive: 13%"}, {"smiles": "O=C(N[C@H]1C[C@H]2C(=O)NC[C@@H](CCC(=O)N3CCN(c4ccccn4)CC3)N2C1)C1CC1", "inhibition": "inactive"}, {"smiles": "Oc1ccccc1-c1nc(N2CCCC2)c2ccccc2n1", "inhibition": "inconclusive: 25%"}, {"smiles": "CN(CC1(N2CCOCC2)CCCCC1)C(=O)c1cn(CCC2CCCCC2)nn1", "inhibition": "inconclusive: 16%"}, {"smiles": "COCC(=O)NCCSc1c(C)[nH]c2ccccc12", "inhibition": "inconclusive: 17%"}, {"smiles": "Cc1nn(C)c(C)c1CN(C(=O)c1cc2ccccc2oc1=O)C1CC1", "inhibition": "inconclusive: 27%"}, {"smiles": "CCC(C)NC(=O)c1ccc(-c2cccc3ccnn23)o1", "note": "(centres undefined)", "inhibition": "inactive"}, {"smiles": "Cc1ccc2sc(-c3ccc(N4C(=O)C5C6C=CC(C6)C5C4=O)cc3)nc2c1", "note": "(centres undefined)", "inhibition": "inactive"}, {"smiles": "COc1cccc(CNC(=O)Cc2csc(C(C)=O)c2)c1", "inhibition": "inconclusive: 21%"}, {"smiles": "COc1cc2c(cc1OC)CN(Cc1ccc(NC(C)=O)cc1)CC2", "inhibition": "inactive"}, {"smiles": "CCn1ccnc1CN1CCC(C2(c3ccccn3)NC(=O)NC2=O)CC1", "note": "(centres undefined)", "inhibition": "inconclusive: 15%"}, {"smiles": "COc1ccc(C2=NN(C(=O)c3ccc(Br)o3)C(c3ccc(OC)cc3)C2)cc1", "note": "(centres undefined)", "inhibition": "inconclusive: 15%"}, {"smiles": "CC(C)C(=O)NC(C)C(c1cccs1)N1CCN(c2ccccc2)CC1", "note": "(centres undefined)", "inhibition": "inconclusive: 15%"}, {"smiles": "CC1=C(C(=O)Nc2ccc(C)cc2C)C(c2ccc(Br)cc2)n2nnnc2N1", "note": "(centres undefined)", "inhibition": "inactive"}, {"smiles": "COC(=O)[C@@H]1C[C@@H](N(C)C)CN1C(=O)c1cc(C2CC2)nc2onc(C)c12", "inhibition": "inconclusive: 14%"}, {"smiles": "CCc1ccc(S(=O)(=O)Nc2ccc3oc(C)c(C(=O)OC)c3c2)cc1", "inhibition": "inactive"}, {"smiles": "CCCCNC(=O)C1CCC(Cn2c(=O)c3sccc3n(CC(=O)NC(C)C)c2=O)CC1", "note": "(centres undefined)", "inhibition": "inconclusive: 12%"}, {"smiles": "CCn1c(CC2CCN(Cc3nc4ccccc4n3C)CC2)nn(C)c1=O", "inhibition": "inconclusive: 13%"}, {"smiles": "COc1cc(OC)c(NC(=O)CSc2cc(=O)n(C)c3cc(Cl)ccc23)cc1Cl", "inhibition": "inactive"}, {"smiles": "CC(=O)Nc1ccc(Cl)c(C(=O)NCc2c(F)cccc2F)c1", "inhibition": "inactive"}, {"smiles": "Cc1ccc(CN2CCNC(=O)C2CC(=O)N2CCC(CN3CCCC3=O)CC2)cc1", "note": "(centres undefined)", "inhibition": "inconclusive: 10%"}, {"smiles": "Cc1cccc(NC(c2ccc(F)cc2)c2ccc3cccnc3c2O)n1", "note": "(centres undefined)", "inhibition": "active: 30%"}, {"smiles": "CN(C)c1ccc(-c2nnnn2[C@H]2CO[C@H]3[C@@H]2OC[C@@H]3NC(=O)NC2CCCCC2)cc1", "inhibition": "inactive"}, {"smiles": "C=CCOc1ccc(C(=O)N2CCOCC2)cc1", "inhibition": "active: 31%"}, {"smiles": "COc1cc2c(cc1OC)C(C(=O)Nc1ccc(C)c(F)c1)C(c1ccccc1F)N(C)C2=O", "note": "(centres undefined)", "inhibition": "inactive"}, {"smiles": "CCOC(=O)Cn1cnc2c(cnn2-c2ccc(Cl)cc2)c1=O", "inhibition": "inconclusive: 13%"}]}]}
